Reference: the supplement of paper PMC5949888
Most values lie at the floor of the assay. Slopes are relative: functional sequences can read slightly below zero.

system: Saccharomyces cerevisiae PS128 hsf1 delta, HSF1(1-493) fusion; assay: growth estimate (transactivation domain function in HSF1 fusion, heat-shock survival) (a.u. (slope of normalised read count over time)); higher = stronger growth at 37°C, i.e. more transactivation activity; conditions: library: random library

Question: HGLRLYRTWVRLFESCIFSK was tested. Which growth estimate did it give?
Answer: < -0.25

Question: Which growth estimate does the source give for APPLASALV here?
Answer: < -0.25

Question: With NCEWSRRLC as the substance, how does the growth estimate read?
Answer: < -0.25

Question: With LSGNYGGLGALTDQADGYYP as the substance, how does the growth estimate read?
Answer: < -0.25

Question: SKGKGRLRTVLKRVRTLDRL was tested. Which growth estimate did it give?
Answer: < -0.25

Question: For RRCRQSQRCTWKRL, which growth estimate is on record?
Answer: -0.145

Question: How did the growth estimate turn out when YRTRICSPVLVMRVHCCNE was run?
Answer: < -0.25

Question: With PSSLNSSTDGKELFGISVRD as the substance, how does the growth estimate read?
Answer: < -0.25

Question: ILQP was tested. Which growth estimate did it give?
Answer: < -0.25

Question: With CFCNGDNWPEWAYSPDNIRP as the substance, how does the growth estimate read?
Answer: < -0.25

Question: How did the growth estimate turn out when SVPLWYRGDRCRGPRH was run?
Answer: < -0.25

Question: GQKIGISHIKPY was tested. Which growth estimate did it give?
Answer: < -0.25

Question: Which growth estimate does the source give for DAGIILCARRTSAPVHILFA here?
Answer: < -0.25

Question: For HGDSMA, which growth estimate is on record?
Answer: < -0.25

Question: How did the growth estimate turn out when FGTCCLEPATSCSPAR was run?
Answer: < -0.25

Question: How did the growth estimate turn out when RVCGGNLGGSTVSGQGLSAS was run?
Answer: < -0.25

Question: Which growth estimate does the source give for YQTTNLRRTAVGPRGVWLQS here?
Answer: < -0.25

Question: How did the growth estimate turn out when DPGPGHNDRACGLGRTRHLT was run?
Answer: -0.246

Question: GTTPGGFIEGIPWDDPS was tested. Which growth estimate did it give?
Answer: < -0.25

Question: For RGCTTQGPM, which growth estimate is on record?
Answer: < -0.25

Question: For RCRGNEYIQQQARGVGSVYM, which growth estimate is on record?
Answer: < -0.25

Question: GTGPRLVPTVRPSVMRWDIA was tested. Which growth estimate did it give?
Answer: < -0.25

Question: TEYGPARLHVMSSPALS was tested. Which growth estimate did it give?
Answer: < -0.25

Question: How did the growth estimate turn out when SLSDPAVGVVRLRAQCSIYH was run?
Answer: < -0.25

Question: LFRITALGRRVYALGNQLSL was tested. Which growth estimate did it give?
Answer: < -0.25

Question: With IGKTRV as the substance, how does the growth estimate read?
Answer: < -0.25

Question: How did the growth estimate turn out when RLNTCSPSSEDVFSSQMAG was run?
Answer: < -0.25

Question: With RRHGDAWGVILLTCMGPIDG as the substance, how does the growth estimate read?
Answer: < -0.25

Question: For ITSIHGLSSVICFVVKPAHF, which growth estimate is on record?
Answer: < -0.25

Question: KQTTISNGGSAAHGKVKHCD was tested. Which growth estimate did it give?
Answer: < -0.25

Question: For WAEVALELVVPRSVPRKWEM, which growth estimate is on record?
Answer: < -0.25

Question: How did the growth estimate turn out when TLITLVGMVALYQLETPAYT was run?
Answer: < -0.25

Question: Which growth estimate does the source give for FSATDGVRSEGFGILKPTGH here?
Answer: < -0.25

Question: Which growth estimate does the source give for HDLRVTSAIMNTA here?
Answer: < -0.25

Question: For RYRSIVDVNVI, which growth estimate is on record?
Answer: < -0.25

Question: LECRGPQP was tested. Which growth estimate did it give?
Answer: < -0.25

Question: How did the growth estimate turn out when RSEGVRRCPGRGHWAC was run?
Answer: < -0.25

Question: How did the growth estimate turn out when GPGH was run?
Answer: < -0.25

Question: With DHKRGAATLCTRSLHQYSGL as the substance, how does the growth estimate read?
Answer: < -0.25

Question: For QNGKTLFDH, which growth estimate is on record?
Answer: < -0.25

Question: For PPKLILKGLRSIADVGGRVA, which growth estimate is on record?
Answer: < -0.25

Question: Which growth estimate does the source give for GSYVMFCGRPD here?
Answer: < -0.25

Question: How did the growth estimate turn out when LEGRQCNQIFYAW was run?
Answer: < -0.25

Question: With QGDPLA as the substance, how does the growth estimate read?
Answer: < -0.25

Question: FDLRISRSLRGPSGLFAPTA was tested. Which growth estimate did it give?
Answer: < -0.25

Question: Which growth estimate does the source give for LLDVVANVRQ here?
Answer: < -0.25

Question: Which growth estimate does the source give for HGLAVPEARKFDSGEIDTHP here?
Answer: < -0.25

Question: How did the growth estimate turn out when GRYDLHDRR was run?
Answer: < -0.25

Question: With RGCSAD as the substance, how does the growth estimate read?
Answer: < -0.25

Question: With LYHGLYVFANSSYHRGGF as the substance, how does the growth estimate read?
Answer: < -0.25

Question: For DTDGRCGSRRRGWTCNRDEM, which growth estimate is on record?
Answer: < -0.25

Question: Which growth estimate does the source give for ISEFVVGPIQTGG here?
Answer: < -0.25

Question: YVSTARTVQGAREETLVMIT was tested. Which growth estimate did it give?
Answer: < -0.25

Question: For TLNPRSRRPSIGIAFKNGVL, which growth estimate is on record?
Answer: < -0.25

Question: Which growth estimate does the source give for FVLESG here?
Answer: < -0.25

Question: ELVRYVWRPLGAVVNGLLIR was tested. Which growth estimate did it give?
Answer: < -0.25

Question: Which growth estimate does the source give for SAY here?
Answer: < -0.25

Question: How did the growth estimate turn out when VQA was run?
Answer: < -0.25

Question: How did the growth estimate turn out when PAD was run?
Answer: < -0.25

Question: With RHVTWFGRCFRVGYNCVGEH as the substance, how does the growth estimate read?
Answer: < -0.25

Question: For YLKRSFLVPPCV, which growth estimate is on record?
Answer: < -0.25

Question: With YHHPCSPVHDATRGDVSPPY as the substance, how does the growth estimate read?
Answer: < -0.25

Question: How did the growth estimate turn out when MSCPR was run?
Answer: < -0.25

Question: For PNGCAEYAFAPDMGW, which growth estimate is on record?
Answer: -0.0349

Question: With YWTI as the substance, how does the growth estimate read?
Answer: < -0.25

Question: For LSSVIPSACGTAGGREIERR, which growth estimate is on record?
Answer: < -0.25

Question: Which growth estimate does the source give for GRAICRSGQLKFCRWGKSLS here?
Answer: < -0.25

Question: GMRA was tested. Which growth estimate did it give?
Answer: -0.0944

Question: For PSMSG, which growth estimate is on record?
Answer: < -0.25

Question: How did the growth estimate turn out when SCYVSGT was run?
Answer: < -0.25

Question: How did the growth estimate turn out when FLVTD was run?
Answer: < -0.25

Question: Which growth estimate does the source give for QLVGGKNSSMSGLGRIKY here?
Answer: < -0.25

Question: With SFSYRLANMGHYQGFEAGWG as the substance, how does the growth estimate read?
Answer: -0.211

Question: Which growth estimate does the source give for SHPGCRGIRSWLR here?
Answer: -0.25

Question: GSAPCPRPL was tested. Which growth estimate did it give?
Answer: < -0.25

Question: With GSYQRRSLVYIHLTCRRTVQ as the substance, how does the growth estimate read?
Answer: < -0.25

Question: VHLLVCGGSHFGLVPRVLTF was tested. Which growth estimate did it give?
Answer: < -0.25

Question: How did the growth estimate turn out when GYIEWV was run?
Answer: < -0.25

Question: With RFLADAPGIPGPKLPHGHLW as the substance, how does the growth estimate read?
Answer: < -0.25

Question: Which growth estimate does the source give for LSPDQPWGGRSVYHA here?
Answer: < -0.25

Question: For SKCV, which growth estimate is on record?
Answer: -0.244

Question: Which growth estimate does the source give for LSDRGGGS here?
Answer: < -0.25

Question: With CLRRHRTCTVYLILGLAGVL as the substance, how does the growth estimate read?
Answer: < -0.25

Question: Which growth estimate does the source give for FHMAARACLLQTVAVSEH here?
Answer: < -0.25

Question: How did the growth estimate turn out when DRRGHVCRPESGSK was run?
Answer: < -0.25

Question: How did the growth estimate turn out when LWIPQRFEISD was run?
Answer: < -0.25

Question: How did the growth estimate turn out when PMRCGASRSGLFKGFNVNTA was run?
Answer: < -0.25

Question: Which growth estimate does the source give for TLRHLRHGMYQTWADTHRTS here?
Answer: < -0.25

Question: For VDGFLGNSTMSNGAHKGMTR, which growth estimate is on record?
Answer: < -0.25

Question: How did the growth estimate turn out when RQI was run?
Answer: < -0.25

Question: DEG was tested. Which growth estimate did it give?
Answer: < -0.25

Question: With HLNRGEVVLTFPGRATRILP as the substance, how does the growth estimate read?
Answer: < -0.25

Question: Which growth estimate does the source give for DTKVGGHCFWF here?
Answer: -0.175

Question: How did the growth estimate turn out when RVSWDCSVCATSLYVRVLVP was run?
Answer: < -0.25

Question: How did the growth estimate turn out when WSAQS was run?
Answer: < -0.25

Question: Which growth estimate does the source give for PNHC here?
Answer: < -0.25

Question: Which growth estimate does the source give for SPGIRT here?
Answer: < -0.25

Question: For LQRGPGH, which growth estimate is on record?
Answer: < -0.25

Question: Which growth estimate does the source give for TALTSGTGTLCPSDIRGIVH here?
Answer: < -0.25
